Measurements from patent US20020098477A1, “METHODS FOR SCREENING NUCLEAR TRANSCRIPTION FACTORS FOR THE ABILITY TO MODULATE AN ESTROGEN RESPONSE” (priority 1997, published 2002).
“Also recorded” adds a separate entry of the source. For at least one compound, name, drawing or mass did not settle the structure.

Experiments:
AP-1 response element [1] = assay: Coll73-LUC collagenase reporter gene assay in HeLa cells transfected with ER and GR; format: cell-based, human; conditions: for transcription through the truncated collagenase promoter (Coll73-LUC), single steroid: 10^−7 M, approx. 40 hrs
From the text: Coll73-LUC and Coll60-CAT have been previously described (Webb et al. (1995) Mol. Endo., 9: 443-456; Lopez et al. (1993) Mol. Cell Biol., 13: 3042-3049). Coll73-LUC consists of −73 to +63 base pairs of the collagenase promoter upstream of the Luciferase reporter gene. Coll517-CAT and Coll517mAP-1-CAT each contain −517 to +63 of the collagenase promoter (Webb et al. (1995) Mol. Endo., 9: 443-456).
Coll517mAP-1-CAT contains three point mutations in the consensus AP-1 response element (TGAGTCA mutated to GTACTCA). ColALuc contains the collagenase AP-1 response element upstream of the minimal drosophila alcohol dehydrogenase promoter (Starr et al., (1996) Genes & Dev., 10: 1271-1283). The ER expression vectors have been previously described: PHE0 (Green et al. (1986) Nature, 320: 134-139), PHEG0 (Tora et al. (1989) EMBO J. 8: 1981-1986), HE11 (Kumar et al. (1986) EMBO J., 5: 2231-2236), and HE15 (Kumar et al. (1987) Cell, 51: 941-951). PHE0 contains a point mutation (Gly400Val). PHEG0 is the wild type ER. PHE0 has reduced affinity for estrogens which allows for studies in cell culture without inadvertent activation. The protein coding regions of the ER plasmids were cloned into the multiple cloning site of the pSG5 expression vector. pRSVhGR (McEwan et al. (1993) Mol. Cell. Biol., 13: 399-407) consists of a cDNA encoding the human GR coding region inserted into an expression vector driven by the Rous sarcoma virus promoter. The PR-A (PhPR-60) and PR-B (hPR65) plasmids were derived from T47D cDNA and genomic DNA (Law et al (1987) Proc. Natl. Acad. Sci., USA, 84: 2877-2881; Wei et al. (1988) Mol. Endo., 2: 62-72) and cloned into an expression vector derived from pLEN (Kushner et al. (1990) Mol. Endocrinol. 4: 1465-1473). The human c-Jun (Turner et al. (1989) Science, 243: 1689-1694)) and rat c-Fos (Cohen et al. (1989) Genes & Dev., 3: 173-184)), have been previously described. The beta-actin-hCG construct has been previously described (Lopez et al. (1993) Mol. Cell. Biol., 13: 3042-3049). The pJ3-LacZ plasmid is pBR322-based and contains an SV40 promoter which activates LacZ.
All cells were maintained in DME medium without phenol red. The medium was supplemented by serum (Sigma) which was tested for low estrogenic activity prior to use. Charcoal- and heat- (55° C.×½ hr.) treated serum was used in the GT1-1, and in all PR experiments. In these experiments cells were treated with media containing charcoal-treated serum the night prior to transfection.
Cells were transfected by electroporation as previously described (Webb et al. (1995) Mol. Endo., 9: 443-456). Briefly, 1-2 million cells from just confluent plates were used for each cuvette. Cells were electroporated at 0.24 kV in electroporation buffer. The electroporated cells were resuspended in medium which was then divided into six well plates. The efficiency of transfection was monitored by co-transfection with either a (hCG reporter driven by an actin promoter (Lopez et al. (1993) Mol. Cell. Biol., 13: 3042-3049) or by co-transfection with pJ3LACZ. CAT or luciferase activity was then corrected by dividing by hCG levels or β-galactosidase activity. Five micrograms of collagenase reporter plasmid, and 1 μg of GR expression vector were used in all experiments unless otherwise indicated.
Cells were treated either immediately or up to 6 hours after transfection. They were then harvested at approximately 40 hrs. after plating. Dexamethasone, estradiol, and R5020 were all used at 10^−7 M. Tamoxifen was used at 5×10^−6 M. PMA (Sigma) was suspended in DMSO and cells were treated at 10^−7 M; TNF-α (R&D Systems, Minneapolis, Minn.) was resuspended in 0.1% BSA and cells were treated at 10 ng/ml.
CAT, luciferase, and hCG assays were performed as described (Webb et al. (1995) Mol. Endo., 9: 443-456; Lopez et al. (1993) Mol. Cell. Biol., 13: 3042-3049). A commercial luminescent assay (Tropix; Bedford, Mass.) was used for β-galactosidase measurements. […]

AP-1 response element [2] = assay: AP-1 reporter (ColALuc) assay in GT1-1 hypothalamic cells transfected with ER, GR and c-Jun; format: cell-based, mouse; conditions: for steroid effect on transcription in the absence of co-transfected c-Jun: GT1-1, no c-Jun
AP-1 response element [3] = assay: Coll517-CAT / Coll517mAP-1-CAT collagenase reporter gene assay in HeLa cells transfected with GR and ER; format: cell-based, human; conditions: GR 1 μg, ER 3 μg

SMILES	transcription through the truncated collagenase promoter (Coll73-LUC), single steroid (AP-1 response element [1]; HeLa, ER (HE0))	estradiol stimulation in the presence of TNF-α (AP-1 response element [1]; TNF-α 10 ng/ml)	further estradiol stimulation with co-transfected c-Jun (AP-1 response element [1]; c-Jun levels giving marked stimulation of AP-1 activated transcription)	estradiol stimulation with co-transfected c-Jun (AP-1 response element [1]; c-Jun levels giving slightly increased AP-1 activated transcription)	steroid effect on transcription in the absence of co-transfected c-Jun (AP-1 response element [2])	basal transcription, single steroid (AP-1 response element [2]; GT1-1, transfected c-Jun 3 μg)	effect on tamoxifen activation (AP-1 response element [1]; Dex 10^−7 M + tamoxifen 5×10^−6 M)	effect on estradiol-stimulated transcription (AP-1 response element [1]; Dex + estradiol, 10^−7 M each, HeLa, ER (HE0))	effect on estradiol activation through HE11 (ER deleted of DNA binding domain) (AP-1 response element [1]; HeLa, Coll73-LUC, HE11 3 and 5 μg)	effect on constitutive activity of HE15 (ER deleted of ligand binding domain) (AP-1 response element [1]; HeLa, Coll73-LUC, HE15)	Dex inhibition in the presence of TNF-α (AP-1 response element [1]; TNF-α 10 ng/ml)	transcriptional activity, Dex alone (AP-1 response element [1]; all amounts of transfected c-Jun)	levels of transcription, Dex and estradiol (AP-1 response element [1]; co-transfected c-Jun)	Dex inhibition of estradiol stimulation (AP-1 response element [1]; constant high level of ER, co-transfecting >1 μg of GR)	inhibition of estradiol stimulation (AP-1 response element [1]; constant high level of co-transfected ER, endogenous levels of GR)	degree of Dex inhibition of tamoxifen activation (AP-1 response element [1]; high levels of co-transfected ER)	inhibition of the estradiol response (AP-1 response element [1]; high levels of transfected ER, GR 1 μg)	effect on estradiol activity through intact AP-1 response element (AP-1 response element [3])	estradiol stimulated transcription (AP-1 response element [2]; GT1-1, transfected c-Jun 3 μg, Dex + estradiol)
C[C@]12CC[C@@H]3c4ccc(O)cc4CC[C@H]3[C@@H]1CC[C@@H]2O [estradiol]	stimulated	no longer apparent	no longer present	potentiated	not observed	stimulated	–	–	–	–	–	–	–	–	–	–	–	–	–
C[C@@H]1C[C@H]2[C@@H]3CCC4=CC(=O)C=C[C@]4(C)[C@@]3(F)[C@@H](O)C[C@]2(C)[C@@]1(O)C(=O)CO [Dex, dexamethasone]	inhibited	–	–	–	not observed	inhibited	inhibited tamoxifen activation; also recorded: inhibits	blocked estradiol-stimulated transcription	inhibited estradiol activation through HE11; also recorded: inhibits	inhibited the constitutive activity; also recorded: inhibits	maintained	restricted transcriptional activity to low levels	close to those seen when cells were treated with Dex alone	restored	unable to inhibit estradiol stimulation	diminished	unable to inhibit the estradiol response	blocked estradiol activity	inhibits
